Assay results from PubChem BioAssay AID2685 (National Center for Advancing Translational Sciences (NCATS), 2010).
The list shows a part of the results. Further columns of the screen follow, without active or inactive calls. Most of these compounds were active or inconclusive in the main read-out, so they are no random draw. The note in brackets gives the kind of curve behind each potency; many fits are weak.

Assay: qHTS Assay for Lipid Storage Modulators in Drosophila S3 Cells;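 on cell number change: cells counted by Cell Tracker Red CMTPX staining in the red channel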
Conditions: BODIPY lipid droplet fluorescence, 18-24 h; for cell number change: measured here: cell count max response, cells fed with added oleic acid
In short: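 Laser-scanning cytometry quantifies lipid droplet accumulation (500–530 nm total intensity; droplet/cell object ratio) in oleic acid-fed (400 uM added) Drosophila S3 cells treated with a concentration series. 20 uM Triacsin C defined 100% inhibition.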

[1] = measured here: cell number channel AC50, cells fed with added oleic acid
[2] = measured here: lipid fluorescence (Fed channel) AC50, cells fed with added oleic acid

SMILES: COCCCNC(=O)/C(C#N)=C/c1ccc(OCC(=O)O)c(OC)c1
- cell number change: -25.5%
- AC50 [1]: 6.51 µM [falling, single point]
- AC50 [2]: 3.66 µM [falling, single point]

SMILES: COc1ccc(/C(C)=N\Nc2nc(-c3ccccc3)cc(=O)[nH]2)cc1
- cell number change: 18.4%

SMILES: CCSc1ncc(/C=N/Nc2ccc(F)cc2)n1C
- cell number change: 2.9%
- AC50 [1]: 6.51 µM [rising, single point]
- AC50 [2]: 6.51 µM [rising, partial curve, poor fit]

SMILES: Cc1cc(NS(=O)(=O)N(C)C)ccc1C(C)C
- cell number change: -3.14%
- AC50 [2]: 2.59 µM [falling, partial curve]

SMILES: Cc1ccc(N(CC(=O)NC2CCCCC2C)S(=O)(=O)c2c(C)nn(C)c2C)cc1 (centres undefined)
- AC50 [2]: 5.17 µM [falling, partial curve]

SMILES: CCN1C(=O)c2cccc3c(S(=O)(=O)NC(Cc4c[nH]c5ccccc45)C(=O)O)ccc1c23 (centres undefined)
- cell number change: -34%
- AC50 [1]: 0.206 µM [falling, full curve, poor fit]
- AC50 [2]: 1.84 µM [falling, full curve]

SMILES: Cc1cccc(S(=O)(=O)N2CCCc3ccccc32)c1
- cell number change: -4.23%
- AC50 [1]: 2.06 µM [falling, partial curve]
- AC50 [2]: 2.59 µM [falling, partial curve]

SMILES: Cc1sc2ncnc(OCC(=O)Nc3ccc4c(c3)OCCO4)c2c1C
- AC50 [1]: 6.51 µM [rising, single point]
- AC50 [2]: 3.66 µM [rising, single point]

SMILES: O=C(COc1ccccc1)N1CCNC1=O
- AC50 [2]: 13 µM [falling, partial curve]

SMILES: CCN(CC)CCN1C(=O)C(=O)/C(=C(/O)c2cnn(-c3ccccc3)c2C)C1c1cccnc1 (centres undefined)
- cell number change: 3.84%
- AC50 [1]: 0.411 µM [falling, partial curve, poor fit]

SMILES: Oc1cccc2ccc(/C=C/c3cccs3)nc12
- cell number change: -8.54%
- AC50 [2]: 1.84 µM [rising, partial curve, poor fit]

SMILES: O=S(=O)(c1ccc(F)cc1)N1CCN(C(=S)NCC2CCCO2)CC1 (centres undefined)
- cell number change: -0.961%

SMILES: CCCCC(=O)N1CCN(c2nc3ccc(Cl)cc3s2)CC1
- AC50 [2]: 6.51 µM [rising, partial curve, poor fit]

SMILES: O=C(COc1cccc(F)c1)Nc1ccc2[nH]c(=O)[nH]c2c1
- cell number change: -4.14%
- AC50 [1]: 3.26 µM [rising, single point]

SMILES: COc1ccc(S(=O)(=O)N(CCN2CCOCC2)Cc2cc(OC)ccc2OC)cc1
- cell number change: -4.69%

SMILES: O=C(C1=C[C@@H](C2CCCCC2)C[C@@H](OCc2ccc(CO)cc2)O1)N1CCN(Cc2ccc3c(c2)OCO3)CC1
- cell number change: -10.8%

SMILES: Cc1ccc(Nc2cc(C(=O)NCCCN3CCOCC3)c3ccccc3n2)c(C)c1
- AC50 [1]: 3.66 µM [falling, single point]
- AC50 [2]: 4.11 µM [falling, single point]

SMILES: CCOC(=O)CNC1CC(=O)N(c2cccc(Cl)c2)C1=O (centres undefined)
- cell number change: -34.9%
- AC50 [1]: 0.0731 µM [falling, full curve, poor fit]
- AC50 [2]: 1.64 µM [falling, partial curve]

SMILES: COc1ccc(CN2CCCC(C(=O)Nc3cccc(-n4cccn4)c3)C2)cc1 (centres undefined)
- cell number change: 29.2%
- AC50 [2]: 29.1 µM [rising, single point]

SMILES: O=C(c1cc(COc2ccc(F)cc2Cl)on1)N1CCCC(c2ccccc2)C1 (centres undefined)
- cell number change: 15.8%
- AC50 [1]: 6.51 µM [rising, single point]
- AC50 [2]: 0.116 µM [rising, full curve, poor fit]

SMILES: CCCn1c(C)cc(/C=C(\C#N)C(=O)OCC(=O)N(C)c2c(N)n(Cc3ccccc3)c(=O)[nH]c2=O)c1C
- cell number change: 2.01%

SMILES: CCOC(=O)N1CCN(CC(O)COc2ccc(C)cc2C(C)(C)C)CC1 (centres undefined)
- cell number change: -17.7%
- AC50 [2]: 6.51 µM [falling, single point]

SMILES: NC(=O)c1c(NC(=O)CN2C(=O)CCC2=O)sc2c1CCCCC2
- cell number change: 44.1%

SMILES: CCOC(=O)c1ccc(NC(=O)NCc2ccccn2)cc1
- cell number change: 12.1%

SMILES: Cc1cnn(C(=S)NCC2CCCO2)c1 (centres undefined)
- cell number change: -5.04%
- AC50 [2]: 7.31 µM [falling, partial curve, poor fit]

SMILES: O=C(Nc1ccc(Oc2ccccc2)cc1)C1CCCN(c2ncccn2)C1 (centres undefined)
- cell number change: 14.9%
- AC50 [2]: 0.411 µM [rising, partial curve, poor fit]

SMILES: NS(=O)(=O)c1ccc(NC(=O)COc2ncnc3c2cnn3-c2ccccc2)cc1
- cell number change: 141%
- AC50 [2]: 6.51 µM [falling, single point]

SMILES: CCOC(=O)COc1ccc2c(=O)c(-c3ccccc3OC)coc2c1
- cell number change: -25.4%
- AC50 [2]: 2.06 µM [falling, partial curve]

SMILES: CCCC(=O)C1=C(O)C(c2cccc(Oc3ccccc3)c2)CCC1=O (centres undefined)
- cell number change: 11.4%
- AC50 [1]: 2.31 µM [falling, partial curve]

SMILES: Cc1ccc(C(C(=O)NC2CCCC2)N(CCCO)C(=O)Cn2nnc(-c3ccc(C)o3)n2)cc1 (centres undefined)
- cell number change: -14.5%
- AC50 [2]: 35.5 µM [rising, single point]

SMILES: COc1cc(NC(=O)COC(=O)C=C(C)C)c(C)cc1[N+](=O)[O-]
- AC50 [2]: 2.91 µM [rising, partial curve, poor fit]

SMILES: COc1ccc2c(-c3ccccc3)cc(=O)[nH]c2c1
- cell number change: 58.8%
- AC50 [1]: 1.64 µM [rising, full curve]
- AC50 [2]: 2.06 µM [rising, partial curve]

SMILES: CCC(NC(=S)NC1CCCCC1)c1ccc(C)cc1 (centres undefined)
- cell number change: -22.8%
- AC50 [2]: 29.1 µM [falling, single point]

SMILES: CCCn1c(C)cc(C(=O)Cn2nnc3ccccc3c2=O)c1C
- cell number change: 23.5%
- AC50 [1]: 0.411 µM [rising, single point]
- AC50 [2]: 1.03 µM [rising, full curve, poor fit]

SMILES: Nc1nc(CSc2ccccc2)nc(N2CCCCC2)n1
- cell number change: 39.1%
- AC50 [1]: 0.259 µM [rising, full curve]

SMILES: COc1ccc(C)cc1NC(=O)c1ccc(NC(=O)CC2SC(N3CCCC3)=NC2=O)cc1 (centres undefined)
- cell number change: -15.8%

SMILES: COC(=O)c1ccsc1NC(=O)c1ccco1
- cell number change: 6.48%

SMILES: COC(=O)CN1C(=O)COc2ccc(S(=O)(=O)N3CCCCCC3)cc21
- cell number change: -27.3%
- AC50 [2]: 29.1 µM [falling, single point]

SMILES: CN(CC(=O)Nc1cccc(S(=O)(=O)NC2=NCCC2)c1)Cc1cccc(F)c1
- cell number change: 22.4%

SMILES: Cc1ccc(COC(=O)c2nn(-c3ccccc3)nc2N)cc1
- AC50 [2]: 2.91 µM [falling, single point]

SMILES: O=C(NCC(c1cccnc1)N1CCN(c2ccc(F)cc2)CC1)OCc1ccccc1 (centres undefined)
- cell number change: -37.4%
- AC50 [1]: 32.6 µM [falling, partial curve, poor fit]
- AC50 [2]: 0.164 µM [rising, full curve]

SMILES: Cc1ccc(S(=O)(=O)N2CCN(C(=O)N3CCOCC3)CC2)c(C)c1
- cell number change: 18.1%
- AC50 [1]: 0.184 µM [rising, partial curve, poor fit]

SMILES: O=S(=O)(NN1CCOCC1)c1cc(Cl)cc(Cl)c1O
- cell number change: -24.8%
- AC50 [1]: 5.8 µM [rising, single point]
- AC50 [2]: 11.6 µM [falling, single point]

SMILES: CC(=O)c1cccc(NC(=O)c2ccccc2N(Cc2ccccc2)S(C)(=O)=O)c1
- cell number change: -65.4%
- AC50 [1]: 29.1 µM [falling, single point]

SMILES: CCOC(=O)N1CCC(Nc2c(NCCCN3CCN(CC)CC3)c(=O)c2=O)CC1
- cell number change: -38.4%
- AC50 [1]: 20.6 µM [falling, single point]
- AC50 [2]: 20.6 µM [falling, partial curve]

SMILES: O=C(NCc1cccc(Cl)c1)c1ccc2ccccc2n1
- cell number change: 7.56%

SMILES: COc1ccccc1C(=O)Nc1cc2ccccc2oc1=O
- cell number change: 4.12%

SMILES: Cc1ccccc1NC(=O)c1ccco1
- cell number change: 5.87%

SMILES: COc1cccc(CN(C(=O)/C=C/c2ccc(Cl)cc2)C2CCS(=O)(=O)C2)c1 (centres undefined)
- cell number change: 30.1%
- AC50 [1]: 29.1 µM [rising, single point]
- AC50 [2]: 29.1 µM [rising, single point]

SMILES: CC(NC(=O)Cn1c(=O)[nH]c2ccsc2c1=O)C12CC3CC(CC(C3)C1)C2 (centres undefined)
- cell number change: -46.9%
- AC50 [1]: 20.6 µM [falling, partial curve]
- AC50 [2]: 18.4 µM [falling, partial curve]

SMILES: CN(c1ccc(C(=O)NCCSC(C)(C)C)cc1)S(C)(=O)=O
- cell number change: -12.8%
- AC50 [2]: 0.291 µM [falling, full curve, poor fit]

SMILES: COc1ccc(NC(=O)c2ccccc2)c([N+](=O)[O-])c1
- cell number change: 38.3%
- AC50 [1]: 32.6 µM [rising, single point]
- AC50 [2]: 6.51 µM [falling, single point]

SMILES: C=CCc1ccc(OCC(O)CN2CCN(Cc3ccccc3)CC2)c(OC)c1 (centres undefined)
- AC50 [2]: 1.64 µM [falling, single point]

SMILES: O=C(NCc1n[nH]c(=S)n1-c1ccc(F)cc1)c1ccco1
- cell number change: -20.2%
- AC50 [1]: 0.013 µM [falling, full curve, poor fit]
- AC50 [2]: 0.58 µM [falling, single point]

SMILES: COc1ccc(C(c2nnnn2Cc2ccc(F)cc2)N2CCN(c3ccccc3)CC2)cc1 (centres undefined)
- cell number change: 5.59%
- AC50 [2]: 3.66 µM [rising, full curve, poor fit]

SMILES: CC(=O)OCC(=O)Nc1ccccc1OC(F)F
- cell number change: 5.39%

SMILES: CCOC(=O)C1CCN(C(=O)c2ccc(NS(=O)(=O)c3ccc(F)cc3C)cc2)CC1
- cell number change: -28.4%
- AC50 [2]: 8.2 µM [falling, partial curve]

SMILES: Cc1cnc(C(=O)N2CCCC(N3CCN(c4cccc(C(F)(F)F)c4)CC3)C2)cn1 (centres undefined)
- cell number change: 12.5%
- AC50 [1]: 0.00517 µM [rising, full curve, poor fit]
- AC50 [2]: 20.6 µM [rising, single point]

SMILES: O=S1(=O)CCC(NS(=O)(=O)/C=C/c2ccccc2)C1 (centres undefined)
- cell number change: -73.4%
- AC50 [1]: 29.1 µM [falling, single point]
